Tested on: GABAA receptors
Details: 1 μM cold GABA

`NCCCC(=O)O` [GABA, γ-aminobutyric acid, reference compound] was tested, and the “inhibition of radioligand binding to GABAA receptors” value was “inhibited radioligand binding as expected”.

Source: publication PMC3257419 (Journal of Medicinal Chemistry, 2011)
